Test results from PubChem BioAssay AID264 (DTP/NCI, 2004).
The list shows only some results of the screen, not a fair sample: it is rich in T/C values a quarter to a half above the control, in often repeated tests (any T/C) and in doses without a T/C. Other doses and runs of a compound stand elsewhere. T/C gives the treated animals as a percentage of the vehicle group. Schedule codes are those of the source, read here as Q, the interval in days (D) or hours (H), X, the number of doses. Some T/C values carry the count of animals alive at the toxicity check (mostly the fifth day); without a count, all were alive then. Some entries give survivors of the animals treated and no T/C: the source holds a T/C of zero for them, seemingly a mark for toxic or unscored doses. Counts of survivors are from the toxicity check (mostly the fifth day) where no day follows; animals may have died later. Some entries were tested several times; their values stand side by side, smallest first.

Tested on: nude mice, LX-1 lung xenograft intrarenal, tumor weight T/C
Test: NCI In Vivo Anticancer Drug Screen. Data for tumor model Human Lung LX-1 Xenograft (intrarenal inoculation) in NU/NU Swiss (nude) mice
Conditions: T/C endpoint: mean tumor weight change, higher T/C = larger tumour; for T/C: evaluated on day 11
Procedure: The antitumor activity of compounds was measured in mice bearing transplantable tumors. Survival or tumor size were measured and the results are expressed as the measurement made in the treated group (T) divided by the measurement made in the vehicle treated control group (C). The tumor model used in this assay is Human Lung LX-1 Xenograft (intrarenal inoculation) in NU/NU Swiss (nude) mice

[1] = dose: 100.0 mg/kg/injection, schedule: Q01DX010 (sc), vehicle: Klucel (hydroxypropylcellulose) (HPC)
[2] = dose: 1200.0 mg/kg/injection, schedule: Q04DX003 (sc), vehicle: saline with Tween-80
[3] = dose: 100.0 mg/kg/injection, schedule: Q01DX010 (sc), vehicle: saline
[4] = dose: 300.0 mg/kg/injection, schedule: Q04DX003 (sc), vehicle: saline with Tween-80
[5] = dose: 600.0 mg/kg/injection, schedule: Q04DX003 (sc), vehicle: saline with Tween-80

With `CC(=O)OCC1OC([S-])C(OC(C)=O)C(OC(C)=O)C1OC(C)=O.CC[PH+](CC)CC.CC[PH+](CC)CC.[Au].[Au]` (stereo not given) the survivor count (dose: 25.0 mg/kg/injection, schedule: Q04DX003 (sc), vehicle: Klucel (hydroxypropylcellulose) (HPC)) was 0 of 6 on day 11 and 2 of 6 on day 11, the survivor count (dose: 50.0 mg/kg/injection, schedule: Q04DX003 (sc), vehicle: Klucel (hydroxypropylcellulose) (HPC)) was 0 of 6 on day 11 and the survivor count (dose: 100.0 mg/kg/injection, schedule: Q04DX003 (sc), vehicle: Klucel (hydroxypropylcellulose) (HPC)) was 0 of 6 on day 11. For the same compound, the survivor count (dose: 200.0 mg/kg/injection, schedule: Q04DX003 (sc), vehicle: Klucel (hydroxypropylcellulose) (HPC)) was 0 of 6 on day 11.

With `COC1OC(CO)C(O)C(NC(=O)N(C)N=O)C1O` (stereo not given) the survivor count (dose: 1800.0 mg/kg/injection, schedule: Q04DX003 (sc), vehicle: saline) was 0 of 6 on day 11 and 3 of 6 on day 11.

In the case of `COc1ccc(C(N)=O)cc1N=NN(C)C`, the survivor count [1] is reported as 0 of 3 on day 11 and the survivor count (dose: 200.0 mg/kg/injection, schedule: Q01DX010 (sc), vehicle: Klucel (hydroxypropylcellulose) (HPC)) is reported as 0 of 3 on day 11.

In the case of `COc1ccc(S(=O)(=O)N=N/C=C2\C=CC=CN2O)cc1OC`, the T/C (dose: 37.5 mg/kg/injection, schedule: Q04DX003 (sc), vehicle: saline with Tween-80) is reported as 130 % of control and the survivor count [2] is reported as 0 of 6 on day 11.

With `CN(C)N=Nc1ccccc1` the survivor count [1] was 0 of 3 on day 11.

For `O=C(O)CC(NC(=O)CP(=O)(O)O)C(=O)O` (stereo not given), the T/C [3] was 130 % of control [2 of 2 alive on day 11] and the survivor count (dose: 800.0 mg/kg/injection, schedule: Q01DX010 (sc), vehicle: saline) was 0 of 2 on day 11.

With `CC(=O)OC1C(O)C(C)OC(OC2C(OC(=O)C3CCC4C(C3)OC3(CC(OC(=O)/C=C/c5ccccc5)C(C)CO3)C43CO3)OC(C)C(O)C2OC(C)=O)C1O` (stereo not given) the T/C (dose: 120.0 mg/kg/injection, schedule: Q04DX003 (sc), vehicle: distilled water + Tween-80) was 129 % of control.

In the case of `CC1(C)N=C(N)N=C(N)N1c1ccc(F)c(C(F)(F)F)c1`, the survivor count (dose: 12.5 mg/kg/injection, schedule: Q01DX010 (sc), vehicle: saline) is reported as 1 of 3 on day 11, the survivor count (dose: 25.0 mg/kg/injection, schedule: Q01DX010 (sc), vehicle: saline) is reported as 1 of 3 on day 11 and the survivor count (dose: 50.0 mg/kg/injection, schedule: Q01DX010 (sc), vehicle: saline) is reported as 0 of 3 on day 11. The survivor count [3] was 0 of 3 on day 11.

For `CO[C@H]1C[C@](C)(O)Cc2cc3c(c(O)c21)C(=O)c1c(O)cc2c(c1C3=O)O[C@@H]1O[C@@]2(C)[C@H](O)[C@@H](N(C)C)[C@@H]1O`, the T/C (dose: 3.12 mg/kg/injection, schedule: Q01DX010 (sc), vehicle: other) was 131 % of control, the survivor count (dose: 12.5 mg/kg/injection, schedule: Q01DX010 (sc), vehicle: other) was 1 of 3 on day 11 and the survivor count (dose: 25.0 mg/kg/injection, schedule: Q01DX010 (sc), vehicle: other) was 0 of 2 on day 11 and 0 of 3 on day 11.

With `Nc1cccc(=O)[nH]1` the survivor count (dose: 2400.0 mg/kg/injection, schedule: Q04DX003 (sc), vehicle: saline) was 1 of 6 on day 11.

In the case of `COC(=O)[C@@]12OC[C@]34[C@H]([C@@H](O)[C@@H]1O)[C@@]1(C)CC(=O)C(O)=C(C)[C@@H]1C[C@H]3OC(=O)[C@H](OC(=O)/C=C(\C)C(C)C)[C@@H]24`, the survivor count (dose: 1.0 mg/kg/injection, schedule: Q01DX010 (sc), vehicle: saline + alcohol) is reported as 0 of 3 on day 11, the survivor count (dose: 2.0 mg/kg/injection, schedule: Q01DX010 (sc), vehicle: saline + alcohol) is reported as 0 of 3 on day 11 and the survivor count (dose: 4.0 mg/kg/injection, schedule: Q01DX010 (sc), vehicle: saline + alcohol) is reported as 0 of 3 on day 11.

With `CN(Cc1cnc2nc(N)nc(N)c2n1)c1ccc(C(=O)N[C@@H](CCC(=O)O)C(=O)O)cc1` the survivor count (dose: 4.0 mg/kg/injection, schedule: Q01DX010 (sc), vehicle: sodium bicarbonate) was 1 of 3 on day 11.

With `Cn1c2nc(=O)n(-c3ccccc3)c(=O)c-2nc2c1CCCC2` the survivor count [4] was 1 of 6 on day 11 and the survivor count [5] was 0 of 6 on day 11.

For `O=C1N[C@@H]([C@H]2CC[C@H](Cl)CN2)C(=O)N[C@H]1[C@H]1CC[C@H](Cl)CN1`, the T/C (dose: 2.5 mg/kg/injection, schedule: Q01DX010 (sc), vehicle: water) was 125 % of control [2 of 2 alive on day 11], the survivor count (dose: 10.0 mg/kg/injection, schedule: Q01DX010 (sc), vehicle: water) was 0 of 2 on day 11 and the survivor count (dose: 20.0 mg/kg/injection, schedule: Q01DX010 (sc), vehicle: water) was 0 of 2 on day 11. For the same compound, the survivor count (dose: 20.0 mg/kg/injection, schedule: Q04DX003 (sc), vehicle: water) was 3 of 6 on day 11 and the survivor count (dose: 40.0 mg/kg/injection, schedule: Q04DX003 (sc), vehicle: water) was 3 of 6 on day 11.

In the case of `c1ccc2c(c1)nnn1c3cnccc3nc21`, the T/C (dose: 12.5 mg/kg/injection, schedule: Q01DX010 (sc), vehicle: saline with Tween-80) is reported as 128 % of control and the T/C (dose: 25.0 mg/kg/injection, schedule: Q01DX010 (sc), vehicle: saline with Tween-80) is reported as 127 % of control.

`CS(=O)(=O)CS(=O)(=O)OCCCl` was tested, and the survivor count (dose: 300.0 mg/kg/injection, schedule: Q04DX003 (sc), vehicle: suspension in saline) was 3 of 6 on day 11, the survivor count (dose: 600.0 mg/kg/injection, schedule: Q04DX003 (sc), vehicle: suspension in saline) was 1 of 6 on day 11 and the survivor count (dose: 1200.0 mg/kg/injection, schedule: Q04DX003 (sc), vehicle: suspension in saline) was 0 of 6 on day 11.

In the case of `CC1=NN(c2cccc(S(=O)(=O)O)c2)C(=O)C1N=Nc1cc(Cl)cc(S(=O)(=O)O)c1O.CC1=NN(c2cccc(S(=O)(=O)O)c2)C(=O)C1N=Nc1cc(Cl)cc(S(=O)(=O)O)c1O.[Cr]` (stereo not given), the survivor count (dose: 1200.0 mg/kg/injection, schedule: Q04DX003 (sc), vehicle: saline) is reported as 1 of 6 on day 11.

`COc1ccc(-c2csc(=[N+]3CCCCC3)s2)cc1` was tested, and the survivor count (dose: 25.0 mg/kg/injection, schedule: Q04DX003 (sc), vehicle: water) was 1 of 6 on day 11, the survivor count (dose: 50.0 mg/kg/injection, schedule: Q04DX003 (sc), vehicle: water) was 0 of 6 on day 11 and the survivor count (dose: 100.0 mg/kg/injection, schedule: Q04DX003 (sc), vehicle: water) was 0 of 6 on day 11. For the same compound, the survivor count (dose: 200.0 mg/kg/injection, schedule: Q04DX003 (sc), vehicle: water) was 0 of 6 on day 11.

In the case of `c1cc2n(n1)CCN2`, the T/C (dose: 166.66 mg/kg/injection, schedule: Q04DX003 (ip), vehicle: saline) is reported as 147 % of control, the T/C (dose: 200.0 mg/kg/injection, schedule: Q01DX010 (sc), vehicle: saline) is reported as 144 % of control and the survivor count (dose: 400.0 mg/kg/injection, schedule: Q01DX010 (sc), vehicle: saline) is reported as 0 of 3 on day 11 and 2 of 6 on day 11. The survivor count (dose: 666.6 mg/kg/injection, schedule: Q04DX003 (ip), vehicle: saline) was 0 of 3 on day 11 and the survivor count (dose: 1333.3 mg/kg/injection, schedule: Q04DX003 (ip), vehicle: saline) was 0 of 3 on day 11.

`BrC1c2cccc3cccc(c23)C1Br` (stereo not given) was tested, and the T/C (dose: 150.0 mg/kg/injection, schedule: Q04DX003 (sc), vehicle: saline with Tween-80) was 135 % of control and the T/C [4] was 138 % of control.

In the case of `COC1=C(OC)C(=O)C(SC/C=C(\C)CCCC(C)CCCC(C)CCCC(C)C)=CC1=O` (stereo not given), the survivor count [4] is reported as 3 of 5 on day 11.

For `C=CCNc1nc2c(s1)CCc1cc(OC)c(OC)cc1-2`, the T/C [4] was 128 % of control, the survivor count [5] was 3 of 6 on day 11 and the survivor count [2] was 3 of 6 on day 11.

With `CCOC(=O)C(C)(C)Oc1ccc(Cl)cc1` the survivor count (dose: 2400.0 mg/kg/injection, schedule: Q04DX003 (sc), vehicle: saline with Tween-80) was 0 of 6 on day 11.

With `C=CCNc1ccc(C)cc1` the T/C [1] was 143 % of control [2 of 2 alive on day 11].
